Measurements as given in the supplement of paper PMC12067093, “Discovery and optimisation of a covalent ligand for TRIM25 and its application to targeted protein ubiquitination” (Chemical Science, 2025).
The list shows a part of the results.

Sequences of proteins named here, by UniProt entry; tags and fusion partners are left off. A change or cut given only in a name is not applied to a line headed by its entry.
UniProt Q93008, whole entry, looked up: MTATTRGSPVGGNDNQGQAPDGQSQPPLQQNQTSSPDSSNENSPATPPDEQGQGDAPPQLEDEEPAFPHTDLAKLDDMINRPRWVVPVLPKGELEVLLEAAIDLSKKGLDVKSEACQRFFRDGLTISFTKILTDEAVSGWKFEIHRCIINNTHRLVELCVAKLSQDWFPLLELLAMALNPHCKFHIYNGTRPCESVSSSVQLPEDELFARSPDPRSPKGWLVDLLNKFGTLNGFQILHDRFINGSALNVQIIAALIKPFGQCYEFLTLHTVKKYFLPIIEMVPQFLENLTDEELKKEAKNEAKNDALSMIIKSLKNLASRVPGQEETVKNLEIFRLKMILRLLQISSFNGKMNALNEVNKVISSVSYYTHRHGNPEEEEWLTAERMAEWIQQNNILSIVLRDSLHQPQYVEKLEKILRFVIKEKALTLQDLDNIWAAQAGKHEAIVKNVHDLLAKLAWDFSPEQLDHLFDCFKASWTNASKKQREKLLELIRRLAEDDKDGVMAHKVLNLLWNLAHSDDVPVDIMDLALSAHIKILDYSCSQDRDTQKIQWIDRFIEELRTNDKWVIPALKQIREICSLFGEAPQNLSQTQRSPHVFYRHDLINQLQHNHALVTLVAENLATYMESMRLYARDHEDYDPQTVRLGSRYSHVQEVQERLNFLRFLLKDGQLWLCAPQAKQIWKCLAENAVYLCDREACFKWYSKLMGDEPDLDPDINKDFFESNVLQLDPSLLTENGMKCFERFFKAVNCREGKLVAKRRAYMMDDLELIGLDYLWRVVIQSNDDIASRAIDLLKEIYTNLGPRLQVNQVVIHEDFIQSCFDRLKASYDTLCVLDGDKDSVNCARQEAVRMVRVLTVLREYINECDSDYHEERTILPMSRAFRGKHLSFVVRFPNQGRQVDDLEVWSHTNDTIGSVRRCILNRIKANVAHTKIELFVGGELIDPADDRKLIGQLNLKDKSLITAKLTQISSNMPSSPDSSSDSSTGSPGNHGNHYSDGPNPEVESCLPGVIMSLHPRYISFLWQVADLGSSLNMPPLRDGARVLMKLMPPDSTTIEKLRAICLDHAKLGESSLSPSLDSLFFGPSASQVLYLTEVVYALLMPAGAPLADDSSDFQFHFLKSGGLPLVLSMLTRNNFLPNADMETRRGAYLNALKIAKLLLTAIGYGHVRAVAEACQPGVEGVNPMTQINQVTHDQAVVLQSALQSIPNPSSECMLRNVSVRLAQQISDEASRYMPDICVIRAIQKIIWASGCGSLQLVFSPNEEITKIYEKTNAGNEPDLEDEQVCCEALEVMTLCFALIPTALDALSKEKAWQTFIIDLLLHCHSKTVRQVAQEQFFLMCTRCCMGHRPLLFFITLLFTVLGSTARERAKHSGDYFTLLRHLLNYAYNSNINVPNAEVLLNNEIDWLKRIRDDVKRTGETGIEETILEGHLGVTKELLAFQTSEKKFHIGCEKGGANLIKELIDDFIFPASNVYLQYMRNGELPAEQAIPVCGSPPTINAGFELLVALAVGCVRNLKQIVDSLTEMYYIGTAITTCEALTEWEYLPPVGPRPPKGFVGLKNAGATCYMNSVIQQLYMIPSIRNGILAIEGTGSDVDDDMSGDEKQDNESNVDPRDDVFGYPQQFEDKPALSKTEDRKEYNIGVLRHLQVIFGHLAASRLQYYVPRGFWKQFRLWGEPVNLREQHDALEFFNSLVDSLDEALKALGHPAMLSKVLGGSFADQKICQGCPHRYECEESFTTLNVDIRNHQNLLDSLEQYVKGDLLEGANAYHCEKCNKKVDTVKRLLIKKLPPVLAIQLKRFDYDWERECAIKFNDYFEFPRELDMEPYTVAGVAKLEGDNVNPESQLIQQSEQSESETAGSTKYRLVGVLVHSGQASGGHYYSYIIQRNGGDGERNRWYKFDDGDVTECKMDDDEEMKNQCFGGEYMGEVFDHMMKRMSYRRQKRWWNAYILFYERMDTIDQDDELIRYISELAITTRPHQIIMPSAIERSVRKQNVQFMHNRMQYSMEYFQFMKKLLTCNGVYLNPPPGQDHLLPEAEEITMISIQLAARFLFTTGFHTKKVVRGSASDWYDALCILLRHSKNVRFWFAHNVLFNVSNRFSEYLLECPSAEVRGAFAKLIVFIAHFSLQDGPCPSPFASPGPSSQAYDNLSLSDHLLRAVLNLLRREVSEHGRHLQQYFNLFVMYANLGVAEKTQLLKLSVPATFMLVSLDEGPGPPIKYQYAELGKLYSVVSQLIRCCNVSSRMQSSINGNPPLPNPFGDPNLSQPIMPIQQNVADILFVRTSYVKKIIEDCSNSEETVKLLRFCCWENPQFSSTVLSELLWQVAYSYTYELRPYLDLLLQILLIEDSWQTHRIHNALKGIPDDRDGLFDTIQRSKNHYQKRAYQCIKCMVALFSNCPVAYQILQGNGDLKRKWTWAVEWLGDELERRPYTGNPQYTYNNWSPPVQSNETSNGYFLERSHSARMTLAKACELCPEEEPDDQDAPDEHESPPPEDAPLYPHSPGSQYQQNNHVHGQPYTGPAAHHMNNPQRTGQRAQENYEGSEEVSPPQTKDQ
UniProt Q9Y6I4: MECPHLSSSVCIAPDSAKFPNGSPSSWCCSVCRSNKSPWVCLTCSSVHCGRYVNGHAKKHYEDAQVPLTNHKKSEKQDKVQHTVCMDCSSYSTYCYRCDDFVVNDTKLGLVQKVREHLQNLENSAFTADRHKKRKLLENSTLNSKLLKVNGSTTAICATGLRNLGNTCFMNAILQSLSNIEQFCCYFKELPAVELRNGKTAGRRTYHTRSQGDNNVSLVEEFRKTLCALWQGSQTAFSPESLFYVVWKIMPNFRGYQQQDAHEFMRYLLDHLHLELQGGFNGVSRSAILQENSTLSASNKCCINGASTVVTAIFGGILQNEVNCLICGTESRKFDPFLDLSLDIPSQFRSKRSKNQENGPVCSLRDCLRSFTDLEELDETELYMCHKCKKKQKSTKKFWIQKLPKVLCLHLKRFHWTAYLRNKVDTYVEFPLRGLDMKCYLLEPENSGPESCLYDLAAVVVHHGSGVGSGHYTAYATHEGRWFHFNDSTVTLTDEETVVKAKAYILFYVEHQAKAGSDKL
UniProt P10746: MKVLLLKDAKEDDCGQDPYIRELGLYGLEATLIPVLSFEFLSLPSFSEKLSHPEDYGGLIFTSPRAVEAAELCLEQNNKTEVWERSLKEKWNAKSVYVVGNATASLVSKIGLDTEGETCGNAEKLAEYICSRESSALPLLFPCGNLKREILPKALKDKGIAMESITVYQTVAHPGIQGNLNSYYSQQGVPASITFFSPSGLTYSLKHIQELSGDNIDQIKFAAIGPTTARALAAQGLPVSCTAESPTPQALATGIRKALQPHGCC
UniProt Q70J99: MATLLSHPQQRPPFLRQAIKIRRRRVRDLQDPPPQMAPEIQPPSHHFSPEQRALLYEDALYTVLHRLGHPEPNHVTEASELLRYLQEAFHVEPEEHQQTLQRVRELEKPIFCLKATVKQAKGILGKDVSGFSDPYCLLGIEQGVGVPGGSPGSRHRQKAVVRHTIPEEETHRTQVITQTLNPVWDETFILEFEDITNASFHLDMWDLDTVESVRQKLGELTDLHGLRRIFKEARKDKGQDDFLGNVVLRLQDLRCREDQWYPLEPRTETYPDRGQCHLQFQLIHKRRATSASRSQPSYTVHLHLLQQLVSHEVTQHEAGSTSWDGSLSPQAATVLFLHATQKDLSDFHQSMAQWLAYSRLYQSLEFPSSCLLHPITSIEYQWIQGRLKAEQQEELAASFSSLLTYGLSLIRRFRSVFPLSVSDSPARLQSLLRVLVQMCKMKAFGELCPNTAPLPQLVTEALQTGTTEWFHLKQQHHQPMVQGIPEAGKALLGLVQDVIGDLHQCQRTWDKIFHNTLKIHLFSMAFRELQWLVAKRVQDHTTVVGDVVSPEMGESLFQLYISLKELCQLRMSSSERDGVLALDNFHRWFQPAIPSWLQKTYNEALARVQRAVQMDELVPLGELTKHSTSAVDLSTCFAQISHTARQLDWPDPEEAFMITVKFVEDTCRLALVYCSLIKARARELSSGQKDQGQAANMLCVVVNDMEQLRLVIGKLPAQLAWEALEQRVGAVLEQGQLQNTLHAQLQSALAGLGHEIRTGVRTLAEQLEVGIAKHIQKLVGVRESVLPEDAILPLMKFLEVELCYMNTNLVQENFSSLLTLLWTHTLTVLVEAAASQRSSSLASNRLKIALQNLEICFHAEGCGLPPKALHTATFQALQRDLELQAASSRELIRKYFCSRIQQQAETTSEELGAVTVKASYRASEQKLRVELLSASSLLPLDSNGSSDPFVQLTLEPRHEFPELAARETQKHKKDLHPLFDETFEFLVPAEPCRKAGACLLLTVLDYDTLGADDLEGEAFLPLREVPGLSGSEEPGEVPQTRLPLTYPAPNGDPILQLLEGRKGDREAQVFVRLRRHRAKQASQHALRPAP
UniProt Q9Y5T5, whole entry, looked up: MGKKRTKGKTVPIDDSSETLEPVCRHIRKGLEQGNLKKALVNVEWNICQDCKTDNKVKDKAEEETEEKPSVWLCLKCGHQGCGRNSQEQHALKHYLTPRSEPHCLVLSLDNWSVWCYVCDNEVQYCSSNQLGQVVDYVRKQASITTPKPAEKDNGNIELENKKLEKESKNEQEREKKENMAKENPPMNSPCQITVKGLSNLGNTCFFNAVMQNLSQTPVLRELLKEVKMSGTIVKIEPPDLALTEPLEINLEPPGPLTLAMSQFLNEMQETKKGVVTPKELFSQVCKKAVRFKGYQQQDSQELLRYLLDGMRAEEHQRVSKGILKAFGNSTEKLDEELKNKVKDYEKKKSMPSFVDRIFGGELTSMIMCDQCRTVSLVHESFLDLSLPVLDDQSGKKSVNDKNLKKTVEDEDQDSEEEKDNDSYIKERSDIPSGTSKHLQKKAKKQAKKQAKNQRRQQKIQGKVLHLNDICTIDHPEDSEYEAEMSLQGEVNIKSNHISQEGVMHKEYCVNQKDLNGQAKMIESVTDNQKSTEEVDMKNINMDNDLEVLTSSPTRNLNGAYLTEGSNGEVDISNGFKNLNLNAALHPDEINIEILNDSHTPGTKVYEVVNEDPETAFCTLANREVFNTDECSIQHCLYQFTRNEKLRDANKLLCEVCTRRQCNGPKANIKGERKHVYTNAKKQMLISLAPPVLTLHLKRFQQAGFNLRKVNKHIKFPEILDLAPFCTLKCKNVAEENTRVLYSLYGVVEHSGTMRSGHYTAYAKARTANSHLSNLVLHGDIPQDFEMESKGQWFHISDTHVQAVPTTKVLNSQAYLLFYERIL
UniProt Q9H3U1: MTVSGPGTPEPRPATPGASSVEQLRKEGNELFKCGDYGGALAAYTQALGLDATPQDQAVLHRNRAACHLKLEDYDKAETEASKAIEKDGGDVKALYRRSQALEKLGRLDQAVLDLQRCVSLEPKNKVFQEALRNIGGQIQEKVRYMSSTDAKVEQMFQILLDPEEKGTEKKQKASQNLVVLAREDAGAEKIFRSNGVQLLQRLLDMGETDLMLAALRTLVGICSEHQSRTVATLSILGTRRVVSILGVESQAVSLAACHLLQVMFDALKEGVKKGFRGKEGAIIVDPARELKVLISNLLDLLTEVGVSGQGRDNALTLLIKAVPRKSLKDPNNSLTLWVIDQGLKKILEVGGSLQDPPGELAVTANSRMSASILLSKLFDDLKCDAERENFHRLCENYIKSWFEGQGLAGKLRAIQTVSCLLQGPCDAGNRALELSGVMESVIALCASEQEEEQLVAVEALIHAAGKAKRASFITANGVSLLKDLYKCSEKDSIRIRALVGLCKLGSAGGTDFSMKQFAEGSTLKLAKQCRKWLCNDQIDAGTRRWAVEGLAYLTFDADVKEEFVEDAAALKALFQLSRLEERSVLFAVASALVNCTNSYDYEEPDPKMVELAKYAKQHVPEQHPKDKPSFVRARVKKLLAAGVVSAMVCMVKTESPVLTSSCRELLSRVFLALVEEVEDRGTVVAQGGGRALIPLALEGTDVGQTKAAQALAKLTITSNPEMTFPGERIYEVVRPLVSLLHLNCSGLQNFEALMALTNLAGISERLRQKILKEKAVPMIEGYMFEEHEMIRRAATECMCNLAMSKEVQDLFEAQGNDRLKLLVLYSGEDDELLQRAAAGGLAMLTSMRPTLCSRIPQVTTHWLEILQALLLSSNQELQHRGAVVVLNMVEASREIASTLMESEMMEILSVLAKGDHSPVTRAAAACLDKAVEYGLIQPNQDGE

What follows are targets tested with Cc1cc(ccc1-c1ccccc1)C(=O)N1CCCN(CC1)C(=O)CCl [compound 10] (assay: probe-labelled cysteine peptide fold change vs DMSO (competition) (log2 fold change); higher = less target engagement (more negative = stronger competition)). Settings: 10 µM; THP-1; incubation time: 4 h.
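Also: competitive profiling in live THP-1 cells: cysteine peptides tagged with an iodoacetamide desthiobiotin (IA-DTB) probe, intensity after compound treatment relative to DMSO-treated cells.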

Target	probe-labelled cysteine peptide fold change
UGDH_O60701_288_DVLNLVYLCEALNLPEVAR (UniProt O60701)	0.369
USP22_Q9UPT9_171_KITSNCTIGLR (UniProt Q9UPT9)	-0.315
USP9X_Q93008_1061_AICLDHAK (UniProt Q93008)	0.267
UPF1_Q92900_374_LMQGDEICLR (UniProt Q92900)	0.0563
USP3_Q9Y6I4_385_SFTDLEELDETELYMCHK (UniProt Q9Y6I4)	-0.114
USP24_Q9UPU5_179_CMPEAFKK (UniProt Q9UPU5)	-0.148
UROS_P10746_241_ALAAQGLPVSCTAESPTPQALATGIRK (UniProt P10746)	0.0095
USO1_O60763_383_CAVLYCFQCFLYK (UniProt O60763)	-0.161
USP7_Q93009_702+711_SLNYCGHIYTPISCK (UniProt Q93009)	0.000646
UNC13D_Q70J99_255_CREDQWYPLEPR (UniProt Q70J99)	-0.287
USP24_Q9UPU5_802_TFFENVNLCDHR (UniProt Q9UPU5)	-0.223
USP48_Q86UV5_80_GNPNCLVGIGEHIWLGEIDENSFHNIDDPNCER (UniProt Q86UV5)	-0.35
USP24_Q9UPU5_116_NDENGNCSGEGIEFPTTNLYELESR (UniProt Q9UPU5)	0.035
USP14_P54578_203_GEQGQYLQQDANECWIQMMR (UniProt P54578)	0.245
UBR7_Q8N806_99+101_CDCGNSK (UniProt Q8N806)	-0.364
USP47_Q96K76_656_MMDLEEVIPLDCCR (UniProt Q96K76)	-0.201
UQCRC1_P31930_410_NALVSHLDGTTPVCEDIGR (UniProt P31930)	-0.112
URB1_O60287_226_EFIPCIFSSGIKEDR (UniProt O60287)	0.245
UHRF1_Q96T88_98_ERDSELSDTDSGCCLGQSESDK (UniProt Q96T88)	0.0114

Target	probe-labelled cysteine peptide fold change
UQCRC1_P31930_268_HLGGIPWTYAEDAVPTLTPCR (UniProt P31930)	-0.173
UMPS_P11172_278_ELLQLADALGPSICMLK (UniProt P11172)	0.284
USP7_Q93009_925_DLLEECK (UniProt Q93009)	0.13
USP40_Q9NVE5_50_NQGGTCYLNSLLQTLHFTPEFR (UniProt Q9NVE5)	-0.592
USP25_Q9UHP3_551_HITEEELSVLESCLHR (UniProt Q9UHP3)	0.253
UNC13D_Q70J99_276_TETYPDRGQCHLQFQLIHK (UniProt Q70J99)	0.0212
UPF2_Q9HAU5_687_NDTLHCLK (UniProt Q9HAU5)	0.0284
USP7_Q93009_223_NQGATCYMNSLLQTLFFTNQLR (UniProt Q93009)	-0.101
USP16_Q9Y5T5_205_GLSNLGNTCFFNAVMQNLSQTPVLR (UniProt Q9Y5T5)	-0.823
UBXN7_O94888_38_HMLEACNNNLEMAVTMFLDGGGIAEEPSTSSASVSTVRPHTEEEVRAPIPQK (UniProt O94888)	-0.0495
UNC45A_Q9H3U1_650_LLAAGVVSAMVCMVK (UniProt Q9H3U1)	-0.242
UGDH_O60701_276_ASVGFGGSCFQK (UniProt O60701)	-0.0102
UGP2_Q16851_276_CEFVMEVTNK (UniProt Q16851)	-0.0908
UGGT1_Q9NYU2_1386_DFNLDGAPYGYTPFCDSRR (UniProt Q9NYU2)	-0.155
USP4_Q13107_7_AEGGGCR (UniProt Q13107)	0.717
USP15_Q9Y4E8_791_DCIELFTTK (UniProt Q9Y4E8)	-0.131
USP8_P40818_962_CTLQDCLR (UniProt P40818)	-0.0442
USP34_Q70CQ2_2062_DTLEGDNMYTCSHCGK (UniProt Q70CQ2)	0.0436

Same assay, conditions: 50 µM; THP-1; incubation time: 4 h

Target	probe-labelled cysteine peptide fold change
UGDH_O60701_288_DVLNLVYLCEALNLPEVAR (UniProt O60701)	0.497
USP22_Q9UPT9_171_KITSNCTIGLR (UniProt Q9UPT9)	-0.757
USP9X_Q93008_1061_AICLDHAK (UniProt Q93008)	0.565
UPF1_Q92900_374_LMQGDEICLR (UniProt Q92900)	-0.0152
USP3_Q9Y6I4_385_SFTDLEELDETELYMCHK (UniProt Q9Y6I4)	-0.984
USP24_Q9UPU5_179_CMPEAFKK (UniProt Q9UPU5)	-0.216
UROS_P10746_241_ALAAQGLPVSCTAESPTPQALATGIRK (UniProt P10746)	-0.0321
USO1_O60763_383_CAVLYCFQCFLYK (UniProt O60763)	0.419
USP7_Q93009_702+711_SLNYCGHIYTPISCK (UniProt Q93009)	-0.0787
UNC13D_Q70J99_255_CREDQWYPLEPR (UniProt Q70J99)	-0.465
USP24_Q9UPU5_802_TFFENVNLCDHR (UniProt Q9UPU5)	0.0212
USP48_Q86UV5_80_GNPNCLVGIGEHIWLGEIDENSFHNIDDPNCER (UniProt Q86UV5)	-0.503
USP24_Q9UPU5_116_NDENGNCSGEGIEFPTTNLYELESR (UniProt Q9UPU5)	0.11
USP14_P54578_203_GEQGQYLQQDANECWIQMMR (UniProt P54578)	0.334
UBR7_Q8N806_99+101_CDCGNSK (UniProt Q8N806)	-1.41
USP47_Q96K76_656_MMDLEEVIPLDCCR (UniProt Q96K76)	-0.201
UQCRC1_P31930_410_NALVSHLDGTTPVCEDIGR (UniProt P31930)	0.0865
URB1_O60287_226_EFIPCIFSSGIKEDR (UniProt O60287)	-0.0265
UHRF1_Q96T88_98_ERDSELSDTDSGCCLGQSESDK (UniProt Q96T88)	-0.448

Target	probe-labelled cysteine peptide fold change
UQCRC1_P31930_268_HLGGIPWTYAEDAVPTLTPCR (UniProt P31930)	-0.0825
UMPS_P11172_278_ELLQLADALGPSICMLK (UniProt P11172)	0.223
USP7_Q93009_925_DLLEECK (UniProt Q93009)	0.3
USP40_Q9NVE5_50_NQGGTCYLNSLLQTLHFTPEFR (UniProt Q9NVE5)	-1.83
USP25_Q9UHP3_551_HITEEELSVLESCLHR (UniProt Q9UHP3)	0.479
UNC13D_Q70J99_276_TETYPDRGQCHLQFQLIHK (UniProt Q70J99)	-0.344
UPF2_Q9HAU5_687_NDTLHCLK (UniProt Q9HAU5)	0.11
USP7_Q93009_223_NQGATCYMNSLLQTLFFTNQLR (UniProt Q93009)	-0.402
USP16_Q9Y5T5_205_GLSNLGNTCFFNAVMQNLSQTPVLR (UniProt Q9Y5T5)	-0.481
UBXN7_O94888_38_HMLEACNNNLEMAVTMFLDGGGIAEEPSTSSASVSTVRPHTEEEVRAPIPQK (UniProt O94888)	-0.268
UNC45A_Q9H3U1_650_LLAAGVVSAMVCMVK (UniProt Q9H3U1)	-0.176
UGDH_O60701_276_ASVGFGGSCFQK (UniProt O60701)	0.16
UGP2_Q16851_276_CEFVMEVTNK (UniProt Q16851)	-0.0851
UGGT1_Q9NYU2_1386_DFNLDGAPYGYTPFCDSRR (UniProt Q9NYU2)	-0.102
USP4_Q13107_7_AEGGGCR (UniProt Q13107)	0.861
USP15_Q9Y4E8_791_DCIELFTTK (UniProt Q9Y4E8)	-0.0515
USP8_P40818_962_CTLQDCLR (UniProt P40818)	-0.135
USP34_Q70CQ2_2062_DTLEGDNMYTCSHCGK (UniProt Q70CQ2)	0.0867
